{"source": "paper doi:10.1101/2024.05.08.593129", "target": "T1, Argininosuccinate synthase 1 (ASS1) (human (cDNA of HeLa cells)) (UniProt P00966)", "T1 sequence": "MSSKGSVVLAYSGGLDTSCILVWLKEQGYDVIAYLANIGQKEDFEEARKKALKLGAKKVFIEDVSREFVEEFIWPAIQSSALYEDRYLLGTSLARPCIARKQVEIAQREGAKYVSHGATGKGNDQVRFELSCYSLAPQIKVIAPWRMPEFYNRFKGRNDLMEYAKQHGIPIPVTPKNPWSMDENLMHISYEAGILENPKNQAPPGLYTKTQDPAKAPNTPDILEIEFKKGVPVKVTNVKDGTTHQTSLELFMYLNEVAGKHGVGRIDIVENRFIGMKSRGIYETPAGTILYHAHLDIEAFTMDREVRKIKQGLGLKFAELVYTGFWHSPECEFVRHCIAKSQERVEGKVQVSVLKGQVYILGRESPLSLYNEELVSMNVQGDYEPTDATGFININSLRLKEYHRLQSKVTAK", "assay": "co-IP", "note": "No constants are given. Whether binding was seen depends on the method and setting. Binding seen in cells or lysates may run through a third protein. Binding calls can cover weak binding; strength is not graded here.", "data": [{"substance": "Coxsackievirus group B3 (CVB3) capsid protein VP2", "values": [{"measurement": "binding", "result": "binds"}]}]}
